Data reported in US20110123525A1 (THROMBOGENICS N V, published 2011).
These are yes or no findings as the source states them, for the method shown. Some binding calls cover weakened binding; strength is not graded here.

Protein sequences, listed by entry. Tags and fused reporters are not part of them. Lines headed by an entry give the natural chain unless they say otherwise; changes in a name come on top. Residues count along the entry.
UniProt P17948, residues 27-687: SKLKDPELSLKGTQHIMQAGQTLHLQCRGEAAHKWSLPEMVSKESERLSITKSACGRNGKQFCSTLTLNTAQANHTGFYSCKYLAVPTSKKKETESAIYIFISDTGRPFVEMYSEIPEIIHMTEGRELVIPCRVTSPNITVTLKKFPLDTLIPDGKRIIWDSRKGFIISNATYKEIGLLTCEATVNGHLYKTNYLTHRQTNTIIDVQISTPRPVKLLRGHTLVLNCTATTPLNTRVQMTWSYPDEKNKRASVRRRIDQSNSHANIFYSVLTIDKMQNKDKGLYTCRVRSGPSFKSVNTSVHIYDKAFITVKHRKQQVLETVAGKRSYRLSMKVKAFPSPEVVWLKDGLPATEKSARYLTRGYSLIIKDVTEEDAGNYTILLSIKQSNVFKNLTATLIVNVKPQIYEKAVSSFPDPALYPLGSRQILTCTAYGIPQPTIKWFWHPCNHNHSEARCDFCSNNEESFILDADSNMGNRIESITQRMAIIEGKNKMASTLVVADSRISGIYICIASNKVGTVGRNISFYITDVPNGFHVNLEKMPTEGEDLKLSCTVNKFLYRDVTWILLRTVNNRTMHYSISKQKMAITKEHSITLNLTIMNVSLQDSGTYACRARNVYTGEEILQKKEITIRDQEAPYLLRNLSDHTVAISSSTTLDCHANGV

Molecular target: T1, recombinant human PlGF-2 (produced in Pichia) (human) (UniProt P49763)
T1 sequence (looked up): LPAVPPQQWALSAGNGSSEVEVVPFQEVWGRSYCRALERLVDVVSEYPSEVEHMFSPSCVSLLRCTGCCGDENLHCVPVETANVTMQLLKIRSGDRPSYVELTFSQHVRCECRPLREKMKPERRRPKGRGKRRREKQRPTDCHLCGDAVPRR
Assay: Biacore, rhuPlGF-2 (Pichia) immobilized on a CM5 chip, rhuFlt-1/Fc injected after buffer, 16D3 or 16D3 Fab

Substance: rhuFlt-1/Fc Chimera (R&D Systems) (from UniProt P17948 27-687) (Fc fusion)
- binding: binds
